Results from PubChem BioAssay AID651640 (Broad Institute, 2012).
Values joined by “and” are separate entries in the source; they are usually repeats but may differ in a detail not shown here. Equal entries are not always repeated. In all, about 350,000 compounds went through this assay and about 6,000 (1.7%) were called active. The shares of active, inactive and inconclusive entries below differ from those in the screen. No stated cut-off is given here; in the data, active means CPE inhibition above about 20% (passing the limit was not always enough); inconclusive means no clear call, values can overlap the other calls; tested in BHK-21 cells.

assay: protection of cells from dengue 2 killing – plate reader, single concentration, primary screen (AID 651640); conditions: DENV2-infected cells, cytopathic effect rescue, at 9.99 µM, stronger effect = higher value;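 further: 0% = median of neutral control wells and 100% = median of positive control wells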

Row | SMILES | CPE inhibition
1 | O=C(N[C@H]1CC[C@@H](CCNC(=O)C2CCCC2)O[C@H]1CO)c1ccccn1 | active: 43.6%
2 | O=C(C[C@H]1CC[C@H]2[C@@H](COC[C@H](O)CN2C(=O)c2cnccn2)O1)NCc1ccc(F)cc1 | inactive: 2.2%
3 | CCOC(=O)CCCCCC(=O)Nc1ccc2c(c1)C(=O)N([C@H](C)CO)C[C@@H](C)[C@@H](CN(C)S(=O)(=O)c1ccc(C)cc1)OCCCC[C@H](C)O2 | inconclusive: 42.4%
4 | Cc1nc(-c2ccc(Cl)cc2)sc1C1(C)CC(c2cccc(Cl)c2)=NO1 (stereo unspecified) | inconclusive: 81%
5 | CN(C1CCCCC1)S(=O)(=O)c1cc2c3c(c1)CCN3C(=O)CC2 | inconclusive: 24.7%
6 | COc1ccc2cc(-c3ccccc3)ncc2c1 | inactive: -13.7%
7 | C[C@@H]1CCCCO[C@H](CN(C)C(=O)Nc2ccc(C(F)(F)F)cc2)[C@H](C)CN([C@@H](C)CO)C(=O)c2cc(NC(=O)Nc3ccc(C(F)(F)F)cc3)ccc2O1 | active: 29.6%
8 | CC(C)NC(=O)N1[C@@H]2c3ccc(-c4ccc(F)cc4)c(=O)n3C[C@@H]2[C@@H](CO)[C@@H]1C(=O)N1CCOCC1 | active: 69.3%
9 | Cc1ccc(S(=O)(=O)N(C)C[C@@H]2Oc3ccc(NC(=O)Nc4ccc(C(F)(F)F)cc4)cc3CC(=O)N([C@@H](C)CO)C[C@H]2C)cc1 | active: 28%
10 | CCOc1c2ccc(C(=O)NCc3ccc4c(c3)OCO4)cc2nn1CC | active: 31.6%
11 | CN(Cc1nccn1C)C(=O)C1CCC(=O)N(CCc2ccc(Cl)cc2)C1 (stereo unspecified) | inconclusive: 63.9%
12 | CCOC(=O)[C@]12CCCC=C1N(Cc1ccc3c(c1)OCO3)C(=O)[C@H](CC(=O)NCc1cccs1)C2 | active: 66.5%
13 | O=C1CN(Cc2nc3cc(Cl)ccc3c(=O)[nH]2)CCN1 | inconclusive: 21.9%
14 | CCOc1ccc(NC(=O)c2cc(S(=O)(=O)N3CCCCC3)c[nH]2)cc1 | inconclusive: 33.1%
15 | O=S(=O)(N[C@@H]1CC[C@@H](CCn2cc(-c3ccc(F)cc3)nn2)O[C@H]1CO)c1ccccc1F | inactive: -1.94%
16 | CC(C)c1cc(C(C)C)n2nc(N)nc2n1 | inactive: 0.56%
17 | CSCC[C@H](N)C(=O)N1CCC(C(=O)N[C@@H](C)C(=O)NCc2ccc(F)cc2)CC1 | inconclusive: 23.6%
18 | O=C(COC(=O)c1cc(S(=O)(=O)N2CCCC2)ccc1O)Nc1ccccc1Br | inconclusive: 44.8%
19 | Cc1nnc(N/N=C\c2ccc(-c3ccccc3[N+](=O)[O-])o2)n1N | inconclusive: 23.4%
20 | CCCC(=O)N=C1SC2CS(=O)(=O)CC2N1c1ccc(-c2nc3ccc(C)cc3s2)cc1 (stereo unspecified) | inconclusive: 25.6%
21 | C[C@@H]1CN([C@H](C)CO)C(=O)c2cc(NS(=O)(=O)c3ccc(F)cc3)ccc2O[C@H]1CN(C)Cc1ccc(C(F)(F)F)cc1 | inactive: -1.98%
22 | C/C(Cl)=C\Cn1c(Nc2cccc(C)c2)nc2c1c(=O)n(C)c(=O)n2C | inconclusive: 24.3%
23 | CN(CC(=O)NC1CCN(Cc2ccccc2)CC1)S(=O)(=O)c1ccc2c(c1)c(=O)n(C)c(=O)n2C | inactive: 1.23%
24 | O=C(NC1CCCC1)N[C@H]1C=C[C@@H](CC(=O)N2CCOCC2)O[C@@H]1CO | active: 35.8%

Row | SMILES | CPE inhibition
25 | COc1ccccc1-c1cnc2c(c1)C(=O)N([C@@H](C)CO)C[C@@H](C)[C@@H](CN(C)C(C)=O)O2 | inconclusive: 21.3% and inactive: 4.89% and inactive: -2.56%
26 | O=C(C[C@H]1C[C@H]2c3cc(NC(=O)c4cccnc4)ccc3O[C@H]2[C@@H](CO)O1)NCC(F)(F)F | inconclusive: 23.6%
27 | COc1ccc2c3c(n(C)c2c1)[C@H](CO)N(Cc1cccc(F)c1)CC31CN(C(=O)Cc2ccccc2)C1 | inactive: -1.65%
28 | COc1ccc(Cn2c(=O)c3cccnc3n(Cc3ccc([N+](=O)[O-])cc3)c2=O)cc1 | inconclusive: 25.8%
29 | CCCn1c(NCc2ccc3c(c2)OCO3)nc2ccccc21 | inactive: 5.18%
30 | N#C[C@H]1[C@@H](c2ccccc2C2=CCCC2)[C@H](CO)N1C(=O)C1CCC1 | inactive: -5.27%
31 | Cc1ccc(S(=O)(=O)N(C)C[C@H]2Oc3ccc(NC(=O)CCCN(C)C)cc3CC(=O)N([C@@H](C)CO)C[C@H]2C)cc1 | active: 43%
32 | CCCNC(=O)Nc1ccc2c(c1)OC[C@H](C)N(Cc1ccncc1)C[C@@H](C)[C@@H](OC)CN(C)C2=O | active: 45.1%
33 | CC=Cc1ccc2n(c1=O)C[C@@H]1[C@@H](CO)[C@H](C(=O)NCC3CC3)[C@H]2N1CCC (mixture of isomers) | inactive: 5.13%
34 | CCC(=O)N[C@@H]1CC[C@@H](CC(=O)NCc2cc(F)cc(F)c2)O[C@H]1CO | inactive: -1.55%
35 | CCOC(=O)[C@H]1[C@H]2COc3ccc(C)cc3[C@@H]2N2C(=O)c3cc(OC)c(OC)cc3NC(=O)[C@@]12C | inconclusive: 36.5%
36 | Cn1cc([N+](=O)[O-])c(C(=O)Nc2ccc(C(=O)N3CCCCC3)cc2)n1 | active: 38.7%
37 | Cc1ccc(C)c(S(=O)(=O)N2CCN(C(=O)c3ccc4ccccc4n3)CC2)c1 | inconclusive: 30.4%
38 | FC(F)(F)c1cccc(Nc2nc(N3CCOCC3)nc(N3CCOCC3)n2)c1 | inconclusive: 25.5%
39 | Cc1cccc(C(C)C)c1NC(=O)c1ccc(OCC2CCCO2)cc1 (stereo unspecified) | inconclusive: 31.9%
40 | N#C[C@@H]1[C@@H](c2ccc(C#CC3CCCC3)cc2)[C@H](CO)N1C(=O)Cc1ccccn1 | inconclusive: 23%
41 | COc1ccc(CN(C)C[C@H]2Oc3ccc(NS(=O)(=O)c4c(C)noc4C)cc3C(=O)N([C@@H](C)CO)C[C@@H]2C)cc1 | active: 24.6%
42 | CN1C(=O)c2cc(NC(=O)C3CCCC3)ccc2OC[C@@H]2O[C@@H](CC(=O)NCCc3ccncc3)CC[C@@H]21 | active: 26.3%
43 | Cn1nc(C(C)(C)C)cc1C(=O)N1CCCC(c2cc(C(=O)Nc3ccccc3Cl)no2)C1 (stereo unspecified) | inconclusive: 46.6%
44 | CC(C)NC(=O)N1CCCCN2[C@H](C1)[C@@H](c1ccc(C#CC3CC3)cc1)[C@@H]2CO | inconclusive: 20.9%
45 | CCC(C)N(C(=O)CSc1nnnn1-c1ccccc1OC)C1CCS(=O)(=O)C1 (stereo unspecified) | inconclusive: 35.1%
46 | COc1ccccc1N1CCN(C(=O)c2ccc(COc3cccc4c3OC(C)(C)C4)cc2)CC1 | inconclusive: 20.2%
47 | O=S1(=O)[C@H]2C[C@@H]3C=C[C@@]2(CN1Cc1ccc(Cl)cc1)O3 | inconclusive: 21%
48 | C=CCn1nc2ccccc2c1OCCO | inactive: -17.6%

Taken from the results shown (two entries):
Row | SMILES | CPE inhibition
37 | Cc1ccc(C)c(S(=O)(=O)N2CCN(C(=O)c3ccc4ccccc4n3)CC2)c1 | inconclusive: 30.4%
38 | FC(F)(F)c1cccc(Nc2nc(N3CCOCC3)nc(N3CCOCC3)n2)c1 | inconclusive: 25.5%

(cont.)

Row | SMILES | CPE inhibition
49 | Cc1ccc(N2C(=O)[C@@H]3C(c4cccnc4)=NO[C@@H]3C2=O)c(C)c1 | inactive: -3.25%
50 | CC(C)c1ccc(CN2CCC2(C)C(=O)Nc2cnc3ccccc3c2)cc1 (stereo unspecified) | inconclusive: 20.6%
51 | O=C(/C=C/c1ccco1)Nc1cccc(C(=O)Nc2ccccc2C(=O)O)c1 | inconclusive: 26.3%
52 | COCCCN1C(=O)C(CC(=O)NC(c2ccccc2)c2ccccc2)CC(C(=O)N(C(C)C)C(C)C)=C1C (stereo unspecified) | active: 56.8%
53 | CC(C)[C@H](NC(=O)c1ccco1)C(=O)OCc1cc(=O)n2c(n1)sc1ccccc12 | inconclusive: 20.3%
54 | C[C@H](CO)N1C[C@H](C)[C@@H](CN(C)Cc2ccc(C(=O)O)cc2)Oc2c(NS(C)(=O)=O)cccc2C1=O | inconclusive: 31.1%
55 | COc1ccc(NC(=O)CN(C)C(=O)/C=C/c2ccc(S(=O)(=O)N3CCCCCC3)cc2)cc1 | inconclusive: 53.8%
56 | CN1c2ccc(C3=CCCCC3)cc2[C@H]2[C@H](CCN2C(=O)C2CC2)[C@@H]1CO | active: 45.5%
57 | CCc1ccc(C(O)c2ncc(-c3cccc(F)c3)[nH]2)cc1 (stereo unspecified) | inconclusive: 35.1%
58 | C[C@@H]1CCCCO[C@@H](CN(C)Cc2ccc(C(=O)O)cc2)[C@@H](C)CN([C@@H](C)CO)C(=O)c2cc(NS(C)(=O)=O)ccc2O1 | active: 47.7%
59 | O=C(C1CCC1)N1CCCCN2[C@H](C1)[C@@H](c1ccc(C#CC3(O)CCCC3)cc1)[C@@H]2CO | inconclusive: 23.9%
60 | Cc1noc(C)c1NC(=O)N[C@H]1C=C[C@H](CC(=O)Nc2ccccc2)O[C@H]1CO | inactive: 0.96%
61 | O=C(c1ccc(Cl)c(Cl)c1)N1CCC(=O)N(C(COCc2ccccc2)Cc2ccccc2)CC1 (stereo unspecified) | inconclusive: 30.4%
62 | CCNC(=O)Nc1ccc2c(c1)C(=O)N(C)[C@@H]1CC[C@H](CC(=O)NCc3ccccc3F)O[C@@H]1CO2 | inconclusive: 26.4%
63 | CC(OC(=O)C1CCN(c2ccc(C(F)(F)F)cn2)CC1)C(=O)c1ccccc1 (stereo unspecified) | inconclusive: 40%
64 | COc1ccc(S(=O)(=O)N2CCN(C(=O)c3cccs3)CC2)cc1OC | inconclusive: 37.4%
65 | Clc1ccc(-c2csc(-c3cccnc3)n2)s1 | active: 51%
66 | COC(=O)c1cnn2c(C)c(Cc3cccc(F)c3)c(C)nc12 | inconclusive: 24%
67 | COc1ccc(/C=C/C(=O)OCC(=O)N2c3ccccc3CC2C)cc1OC (stereo unspecified) | inconclusive: 24.6%
68 | C[C@@H]1CN([C@@H](C)CO)C(=O)c2cccc(NC(=O)Nc3ccc(C(F)(F)F)cc3)c2O[C@@H]1CN(C)S(C)(=O)=O | inconclusive: 41.1%
69 | CCO[C@H]1OC(C(=O)NC2CC2)=C[C@@H](C2CCCCC2)[C@@H]1CCCO | active: 119% and active: 23%
70 | Cc1ccc(C(OCC(O)CN2CCCCC2)c2ccccc2)cc1 (stereo unspecified) | inconclusive: 39.2%
71 | C[C@H](CO)N1C[C@H](C)[C@@H](CN(C)C(=O)Nc2ccccc2)Oc2ccc(NC(=O)Nc3ccc(F)cc3)cc2CC1=O | inactive: -0.468%

In the list so far, these have a furan ring, fused or not.
Row | SMILES | CPE inhibition
19 | Cc1nnc(N/N=C\c2ccc(-c3ccccc3[N+](=O)[O-])o2)n1N | inconclusive: 23.4%
51 | O=C(/C=C/c1ccco1)Nc1cccc(C(=O)Nc2ccccc2C(=O)O)c1 | inconclusive: 26.3%
53 | CC(C)[C@H](NC(=O)c1ccco1)C(=O)OCc1cc(=O)n2c(n1)sc1ccccc12 | inconclusive: 20.3%
